Results on one molecule are retold here after PMC8102066, “Differences in interactions between transmembrane domains tune the activation of metabotropic glutamate receptors” (eLife, 2021).

Results are given in words; binding and its absence hold for the method and conditions named. Some binding calls cover weakened binding; strength is not graded here. Where a sequence is shown, tags or fusion partners need not be part of it.

The target of this test is HA-SNAP-mGluR3 (rat), P31422. Description: single-molecule pulldown (SiMPull) with photobleaching step counting; HEK 293T cells surface-labelled with BG-LD555, lysed in 1.2% IGEPAL, diluted in 0.1% IGEPAL buffer; HA-SNAP constructs captured by biotinylated anti-HA antibody on NeutrAvidin/PEG slides; TIRF; percent dimerization = two-step bleaching min-max normalised (5% background, 55% for full-length mGluR2); in some experiments saturating ligands (TASP, MNI …). The note with it: remark: other sources report otherwise.

B1: HA-SNAP-mGluR3, P31422 23-879 (receptor)
chain: LGDHNFMRREIKIEGDLVLGGLFPINEKGTGTEECGRINEDRGIQRLEAMLFAIDEINKDNYLLPGVKLGVHILDTCSRDTYALEQSLEFVRASLTKVDEAEYMCPDGSYAIQENIPLLIAGVIGGSYSSVSIQVANLLRLFQIPQISYASTSAKLSDKSRYDYFARTVPPDFYQAKAMAEILRFFNWTYVSTVASEGDYGETGIEAFEQEARLRNICIATAEKVGRSNIRKSYDSVIRELLQKPNARVVVLFMRSDDSRELIAAANRVNASFTWVASDGWGAQESIVKGSEHVAYGAITLELASHPVRQFDRYFQSLNPYNNHRNPWFRDFWEQKFQCSLQNKRNHRQVCDKHLAIDSSNYEQESKIMFVVNAVYAMAHALHKMQRTLCPNTTKLCDAMKILDGKKLYKEYLLKINFTAPFNPNKGADSIVKFDTFGDGMGRYNVFNLQQTGGKYSYLKVGHWAETLSLDVDSIHWSRNSVPTSQCSDPCAPNEMKNMQPGDVCCWICIPCEPYEYLVDEFTCMDCGPGQWPTADLSGCYNLPEDYIKWEDAWAIGPVTIACLGFLCTCIVITVFIKHNNTPLVKASGRELCYILLFGVSLSYCMTFFFIAKPSPVICALRRLGLGTSFAICYSALLTKTNCIARIFDGVKNGAQRPKFISPSSQVFICLGLILVQIVMVSVWLILETPGTRRYTLPEKRETVILKCNVKDSSMLISLTYDVVLVILCTVYAFKTRKCPENFNEAKFIGFTMYTTCIIWLAFLPIFYVTSSDYRVQTTTMCISVSLSGFVVLGCLFAPKVHIVLFQPQKNVVTHRLHLNRFSVSGTATTYSQSSASTYVPTVCNGREVLDSTTSSL
modifications: here or on the partner: SNAP tag labelled with BG-LD555 (BG-LD655 in two-colour SiMPull); SNAP tag labelled with BG-LD555 (BG-LD655 in two-colour SiMPull)
For the molecule B1, the binding entry is recorded as “binds”.
